{
  "source": "the supplement of paper PMC8728848",
  "binders": {"B1": {"name": "Protein L(A-C2) (Finegoldia magna), Q51912 (protein)", "chain": "ADEPIDLEKLEEKRDKENVGNLPKFDNEVKDGSENPMAKYPDFDDEASTRFETENNEFEEKKVVSDNFFDQSEHPFVENKEETPETPETDSEEEVTIKANLIFANGSTQTAEFKGTFEKATSEAYAYADTLKKDNGEYTVDVADKGYTLNIKFAGKEKTPEEPKEEVTIKANLIYADGKTQTAEFKGTFEEATAEAYRYADALKKDNGEYTVDVADKGYTLNIKFAGKEKTPEEPKEEVTIKANLIYADGKTQTAEFKGTFEEATAEAYRYADLLAKENGKYTVDVADKGYTLNIKFAGKEKTPEEPKEEVTIKANLIYADGKTQTAEFKGTFAEATAEAYRYADLLAKENGKYTADLEDGGYTINIRFAGKKVDEKPEEKEQVTIKENIYFEDGTVQTATFKGTFAEATAEAYRYADLLSKEHGKYTADLEDGGYTINIRFAGKEEPEETPEKPEVQDGYASYEEAEAAAKEALKNDDVNKSYTIRQGADGRYYYVLSPVEAEEEKPEAQNGYATYEEAEAAAKKALENDPINKSYSIRQGADGRYYYVLSPVEAE"}},
  "assay_in_all_cases": "glycan array binding signal (z-score within array); higher = stronger binding",
  "details_in_all_cases": "glycan notation: IUPAC condensed, linker removed",
  "key": {"[1]": {"molecular_target": "Gal(b1-4)GlcNAc(b1-3)Gal(b1-4)GlcNAc(b1-2)[Gal(b1-4)GlcNAc(b1-3)Gal(b1-4)GlcNAc(b1-6)]Man(a1-6)[Gal(b1-4)GlcNAc(b1-3)Gal(b1-4)GlcNAc(b1-2)Man(a1-3)]Man(b1-4)GlcNAc(b1-4)GlcNAc", "procedure,_shortened": "(§1)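 Negative Z-scores can be read as non-binding. The Z-score is calculated within each array and then averaged across arrays of one protein sequence at different concentrations or buffers and across linkers. Arrays, 3228 in all, were curated from the Consortium for Functional Glycomics database and kept only where the protein sequence was available.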"}, "[2]": {"molecular_target": "Gal(b1-4)GlcNAc(b1-3)Gal(b1-4)GlcNAc(b1-2)[Gal(b1-4)GlcNAc(b1-3)Gal(b1-4)GlcNAc(b1-6)]Man(a1-6)[Gal(b1-4)GlcNAc(b1-3)Gal(b1-4)GlcNAc(b1-2)Man(a1-3)]Man(b1-4)GlcNAc(b1-4)[Fuc(a1-6)]GlcNAc", "procedure,_shortened": "as §1"}, "[3]": {"molecular_target": "Gal(b1-4)GlcNAc(b1-3)Gal(b1-4)GlcNAc(b1-3)Gal(b1-4)GlcNAc", "procedure,_shortened": "as §1"}, "[4]": {"molecular_target": "Gal(b1-4)GlcNAc(b1-3)Gal(b1-4)GlcNAc(b1-3)Gal(b1-4)GlcNAc(b1-2)Man(a1-3)[Gal(b1-4)GlcNAc(b1-3)Gal(b1-4)GlcNAc(b1-3)Gal(b1-4)GlcNAc(b1-2)Man(a1-6)]Man(b1-4)GlcNAc(b1-4)GlcNAc", "procedure,_shortened": "as §1"}, "[5]": {"molecular_target": "Gal(b1-4)GlcNAc(b1-3)Gal(b1-4)GlcNAc(b1-3)Gal(b1-4)GlcNAc(b1-2)Man(a1-3)[Gal(b1-4)GlcNAc(b1-3)Gal(b1-4)GlcNAc(b1-3)Gal(b1-4)GlcNAc(b1-2)Man(a1-6)]Man(b1-4)GlcNAc(b1-4)[Fuc(a1-6)]GlcNAc", "procedure,_shortened": "as §1"}, "[6]": {"molecular_target": "Gal(b1-4)GlcNAc(b1-3)Gal(b1-4)GlcNAc(b1-3)Gal(b1-4)GlcNAc(b1-2)[Gal(b1-4)GlcNAc(b1-3)Gal(b1-4)GlcNAc(b1-3)Gal(b1-4)GlcNAc(b1-6)]Man(a1-6)[Gal(b1-4)GlcNAc(b1-3)Gal(b1-4)GlcNAc(b1-3)Gal(b1-4)GlcNAc(b1-2)Man(a1-3)]Man(b1-4)GlcNAc(b1-4)[Fuc(a1-6)]GlcNAc", "procedure,_shortened": "as §1"}, "[7]": {"molecular_target": "Gal(b1-4)GlcNAc(b1-3)Gal(b1-4)GlcNAc(b1-3)Gal(b1-4)GlcNAc(b1-3)Gal(b1-4)GlcNAc(b1-2)Man(a1-3)[Gal(b1-4)GlcNAc(b1-3)Gal(b1-4)GlcNAc(b1-3)Gal(b1-4)GlcNAc(b1-3)Gal(b1-4)GlcNAc(b1-2)Man(a1-6)]Man(b1-4)GlcNAc(b1-4)GlcNAc", "procedure,_shortened": "as §1"}, "[8]": {"molecular_target": "Gal(b1-4)GlcNAc(b1-3)Gal(b1-4)GlcNAc(b1-3)Gal(b1-4)GlcNAc(b1-3)Gal(b1-4)GlcNAc(b1-2)Man(a1-3)[Gal(b1-4)GlcNAc(b1-3)Gal(b1-4)GlcNAc(b1-3)Gal(b1-4)GlcNAc(b1-3)Gal(b1-4)GlcNAc(b1-2)Man(a1-6)]Man(b1-4)GlcNAc(b1-4)[Fuc(a1-6)]GlcNAc", "procedure,_shortened": "as §1"}, "[9]": {"molecular_target": "Gal(b1-4)GlcNAc(b1-3)Gal(b1-4)GlcNAc(b1-3)Gal(b1-4)GlcNAc(b1-3)Gal(b1-4)GlcNAc(b1-2)[Gal(b1-4)GlcNAc(b1-3)Gal(b1-4)GlcNAc(b1-3)Gal(b1-4)GlcNAc(b1-3)Gal(b1-4)GlcNAc(b1-6)]Man(a1-6)[Gal(b1-4)GlcNAc(b1-3)Gal(b1-4)GlcNAc(b1-3)Gal(b1-4)GlcNAc(b1-3)Gal(b1-4)GlcNAc(b1-2)Man(a1-3)]Man(b1-4)GlcNAc(b1-4)[Fuc(a1-6)]GlcNAc", "procedure,_shortened": "as §1"}, "[10]": {"molecular_target": "Gal(b1-4)GlcNAc(b1-3)Gal(b1-4)GlcNAc(b1-3)Gal(b1-4)GlcNAc(b1-3)Gal(b1-4)GlcNAc(b1-3)Gal(b1-4)GlcNAc(b1-2)Man(a1-3)[Gal(b1-4)GlcNAc(b1-3)Gal(b1-4)GlcNAc(b1-3)Gal(b1-4)GlcNAc(b1-3)Gal(b1-4)GlcNAc(b1-3)Gal(b1-4)GlcNAc(b1-2)Man(a1-6)]Man(b1-4)GlcNAc(b1-4)GlcNAc", "procedure,_shortened": "as §1"}, "[11]": {"molecular_target": "Gal(b1-4)GlcNAc(b1-3)Gal(b1-4)GlcNAc(b1-3)Gal(b1-4)GlcNAc(b1-3)Gal(b1-4)GlcNAc(b1-3)Gal(b1-4)GlcNAc(b1-2)Man(a1-3)[Gal(b1-4)GlcNAc(b1-3)Gal(b1-4)GlcNAc(b1-3)Gal(b1-4)GlcNAc(b1-3)Gal(b1-4)GlcNAc(b1-3)Gal(b1-4)GlcNAc(b1-2)Man(a1-6)]Man(b1-4)GlcNAc(b1-4)[Fuc(a1-6)]GlcNAc", "procedure,_shortened": "as §1"}, "[12]": {"molecular_target": "Gal(b1-4)GlcNAc(b1-3)Gal(b1-4)GlcNAc(b1-3)Gal(b1-4)GlcNAc(b1-3)Gal(b1-4)GlcNAc(b1-3)Gal(b1-4)GlcNAc(b1-2)[Gal(b1-4)GlcNAc(b1-3)Gal(b1-4)GlcNAc(b1-3)Gal(b1-4)GlcNAc(b1-3)Gal(b1-4)GlcNAc(b1-3)Gal(b1-4)GlcNAc(b1-6)]Man(a1-6)[Gal(b1-4)GlcNAc(b1-3)Gal(b1-4)GlcNAc(b1-3)Gal(b1-4)GlcNAc(b1-3)Gal(b1-4)GlcNAc(b1-3)Gal(b1-4)GlcNAc(b1-2)Man(a1-3)]Man(b1-4)GlcNAc(b1-4)[Fuc(a1-6)]GlcNAc", "procedure,_shortened": "as §1"}, "[13]": {"molecular_target": "Gal(b1-4)GlcNAc(b1-3)Gal(b1-4)GlcNAc(b1-3)Gal(b1-4)GlcNAc(b1-3)Gal(b1-4)GlcNAc(b1-3)Gal(b1-4)GlcNAc(b1-3)Gal(b1-4)GlcNAc(b1-2)Man(a1-3)[Gal(b1-4)GlcNAc(b1-3)Gal(b1-4)GlcNAc(b1-3)Gal(b1-4)GlcNAc(b1-3)Gal(b1-4)GlcNAc(b1-3)Gal(b1-4)GlcNAc(b1-3)Gal(b1-4)GlcNAc(b1-2)Man(a1-6)]Man(b1-4)GlcNAc(b1-4)GlcNAc", "procedure,_shortened": "as §1"}, "[14]": {"molecular_target": "Gal(b1-4)GlcNAc(b1-3)Gal(b1-4)GlcNAc(b1-3)GalNAc", "procedure,_shortened": "as §1"}, "[15]": {"molecular_target": "Gal(b1-4)GlcNAc(b1-3)Gal(b1-4)GlcNAc(b1-3)[Gal(b1-4)GlcNAc(b1-3)Gal(b1-4)GlcNAc(b1-6)]GalNAc", "procedure,_shortened": "as §1"}, "[16]": {"molecular_target": "Gal(b1-4)GlcNAc(b1-3)Gal(b1-4)GlcNAc(b1-6)[Gal(b1-3)]GalNAc", "procedure,_shortened": "as §1"}, "[17]": {"molecular_target": "Gal(b1-4)GlcNAc(b1-3)Gal(b1-4)[Fuc(a1-3)]GlcNAc(b1-3)Gal(b1-4)[Fuc(a1-3)]GlcNAc", "procedure,_shortened": "as §1"}, "[18]": {"molecular_target": "Gal(b1-4)GlcNAc(b1-3)GalNAc", "procedure,_shortened": "as §1"}, "[19]": {"molecular_target": "Gal(b1-4)GlcNAc(b1-3)[Fuc(a1-3)GlcNAc(b1-6)]Gal(b1-4)Glc", "procedure,_shortened": "as §1"}, "[20]": {"molecular_target": "Gal(b1-4)GlcNAc(b1-3)[Gal(b1-4)GlcNAc(b1-6)]Gal(b1-4)GlcNAc", "procedure,_shortened": "as §1"}, "[21]": {"molecular_target": "Gal(b1-4)GlcNAc(b1-3)[GlcNAc(b1-6)]Gal(b1-4)GlcNAc", "procedure,_shortened": "as §1"}, "[22]": {"molecular_target": "Gal(b1-4)GlcNAc(b1-6)Gal(b1-4)GlcNAc", "procedure,_shortened": "as §1"}, "[23]": {"molecular_target": "Gal(b1-4)GlcNAc(b1-6)GalNAc", "procedure,_shortened": "as §1"}, "[24]": {"molecular_target": "Gal(b1-4)GlcNAc(b1-6)[Gal(b1-3)]GalNAc", "procedure,_shortened": "as §1"}, "[25]": {"molecular_target": "Gal(b1-4)GlcNAc(b1-6)[Gal(b1-4)GlcNAc(b1-3)]GalNAc", "procedure,_shortened": "as §1"}, "[26]": {"molecular_target": "Gal(b1-4)GlcNAc6P", "procedure,_shortened": "as §1"}, "[27]": {"molecular_target": "Gal(b1-6)Gal", "procedure,_shortened": "as §1"}, "[28]": {"molecular_target": "Gal3S(b1-3)GalNAc", "procedure,_shortened": "as §1"}, "[29]": {"molecular_target": "Gal3S(b1-3)GlcNAc", "procedure,_shortened": "as §1"}, "[30]": {"molecular_target": "Gal3S(b1-3)[Fuc(a1-4)]GlcNAc", "procedure,_shortened": "as §1"}},
  "note": "This is one part of the list.",
  "data": [
    {"binder": "B1", "values": [
      {"measurement": "glycan array binding signal (z-score)", "setting": "[1]", "value": 1.35},
      {"measurement": "glycan array binding signal (z-score)", "setting": "[2]", "value": 1.42},
      {"measurement": "glycan array binding signal (z-score)", "setting": "[3]", "value": -0.614},
      {"measurement": "glycan array binding signal (z-score)", "setting": "[4]", "value": 3.21},
      {"measurement": "glycan array binding signal (z-score)", "setting": "[5]", "value": 1.11},
      {"measurement": "glycan array binding signal (z-score)", "setting": "[6]", "value": 0.368},
      {"measurement": "glycan array binding signal (z-score)", "setting": "[7]", "value": 0.959},
      {"measurement": "glycan array binding signal (z-score)", "setting": "[8]", "value": 0.473},
      {"measurement": "glycan array binding signal (z-score)", "setting": "[9]", "value": 2.27},
      {"measurement": "glycan array binding signal (z-score)", "setting": "[10]", "value": 0.151},
      {"measurement": "glycan array binding signal (z-score)", "setting": "[11]", "value": 0.748},
      {"measurement": "glycan array binding signal (z-score)", "setting": "[12]", "value": 1.8},
      {"measurement": "glycan array binding signal (z-score)", "setting": "[13]", "value": 0.653},
      {"measurement": "glycan array binding signal (z-score)", "setting": "[14]", "value": 0.97},
      {"measurement": "glycan array binding signal (z-score)", "setting": "[15]", "value": 1.95},
      {"measurement": "glycan array binding signal (z-score)", "setting": "[16]", "value": 3.67},
      {"measurement": "glycan array binding signal (z-score)", "setting": "[17]", "value": 0.086},
      {"measurement": "glycan array binding signal (z-score)", "setting": "[18]", "value": -0.961},
      {"measurement": "glycan array binding signal (z-score)", "setting": "[19]", "value": 0.308},
      {"measurement": "glycan array binding signal (z-score)", "setting": "[20]", "value": -1.01},
      {"measurement": "glycan array binding signal (z-score)", "setting": "[21]", "value": -0.783},
      {"measurement": "glycan array binding signal (z-score)", "setting": "[22]", "value": -1.04},
      {"measurement": "glycan array binding signal (z-score)", "setting": "[23]", "value": -0.23},
      {"measurement": "glycan array binding signal (z-score)", "setting": "[24]", "value": -0.544},
      {"measurement": "glycan array binding signal (z-score)", "setting": "[25]", "value": 0.282},
      {"measurement": "glycan array binding signal (z-score)", "setting": "[26]", "value": -0.881},
      {"measurement": "glycan array binding signal (z-score)", "setting": "[27]", "value": 0.608},
      {"measurement": "glycan array binding signal (z-score)", "setting": "[28]", "value": -0.97},
      {"measurement": "glycan array binding signal (z-score)", "setting": "[29]", "value": -0.286},
      {"measurement": "glycan array binding signal (z-score)", "setting": "[30]", "value": 1.09}
    ]}
  ]
}
